Measured values from publication PMC10799361.
No constants are given. Whether binding was seen depends on the method and setting. In cells and extracts the contact can be indirect. Some binding calls cover weakened binding; strength is not graded here.

The chains behind the UniProt entries cited, without tags or fusion partners. Residues count along the entry.
UniProt Q9QUK6, residues 26-835: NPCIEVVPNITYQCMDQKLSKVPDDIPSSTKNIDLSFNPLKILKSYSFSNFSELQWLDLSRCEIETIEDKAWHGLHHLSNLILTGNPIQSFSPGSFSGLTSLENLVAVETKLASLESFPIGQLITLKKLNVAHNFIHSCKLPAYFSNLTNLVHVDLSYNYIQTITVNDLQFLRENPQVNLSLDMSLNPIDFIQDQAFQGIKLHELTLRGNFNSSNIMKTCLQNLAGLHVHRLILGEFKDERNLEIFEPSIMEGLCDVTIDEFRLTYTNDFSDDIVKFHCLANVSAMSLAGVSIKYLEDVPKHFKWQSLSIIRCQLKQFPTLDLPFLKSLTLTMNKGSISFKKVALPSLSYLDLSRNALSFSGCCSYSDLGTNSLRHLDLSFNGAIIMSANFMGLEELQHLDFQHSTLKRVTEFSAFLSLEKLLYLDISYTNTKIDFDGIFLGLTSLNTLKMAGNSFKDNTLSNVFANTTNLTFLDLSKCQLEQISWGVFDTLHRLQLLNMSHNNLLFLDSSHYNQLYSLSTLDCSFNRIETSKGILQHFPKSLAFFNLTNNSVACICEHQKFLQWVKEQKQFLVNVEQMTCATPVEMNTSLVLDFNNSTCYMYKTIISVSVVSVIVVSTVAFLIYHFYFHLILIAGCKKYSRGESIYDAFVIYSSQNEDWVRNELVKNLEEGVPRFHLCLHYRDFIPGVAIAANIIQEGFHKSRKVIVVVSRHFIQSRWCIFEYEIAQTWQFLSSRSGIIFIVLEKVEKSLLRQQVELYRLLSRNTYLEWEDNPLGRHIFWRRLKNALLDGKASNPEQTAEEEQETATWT

Target: T1, Myeloid differentiation protein 2 (mouse (endogenous in lung tissue of C57BL/6 mice)) (UniProt Q9JHF9)
T1 sequence: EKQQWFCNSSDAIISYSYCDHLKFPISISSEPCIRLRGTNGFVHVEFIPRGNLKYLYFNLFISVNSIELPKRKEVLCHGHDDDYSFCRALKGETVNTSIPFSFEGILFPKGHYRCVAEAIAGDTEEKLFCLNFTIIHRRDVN
Assay: co-IP; 300 ug protein of mouse lung tissue lysate; MD2 antibody overnight at 4 °C, protein A + G agarose, four washes with ice-cold PBS, Western blot for TLR4; mice of the groups CON, L6H21, OVA, OVA + L6H21 (10 mg/kg), OVA + L6H21 (20 mg/kg)

toll-like receptor 4 (from UniProt Q9QUK6 26-835)
binding: binds
